From paper doi:10.1101/2022.04.11.487887 (bioRxiv, 2022)
No constants are given. Whether binding was seen depends on the method and setting. Sequences can lack the tags named with a protein. Blank lines part the entries; values can stand above or below the binder they belong to.

How the values were obtained:
Assay in all cases: SEC
[1] = target: Strep-His-Halo-3C-Xenopus γTuNA I67D/L70D (Xenopus laevis)
[2] = target: Strep-His-Halo-3C-human γTuNA I67D/L70D (human)
[3] = target: Strep-His-Halo-3C-human γTuNA I67A/L70A (human)

- binding [1]: no binding (tested: 50 μM)
Binder: MKDFEKQDAEDKKENFNLKLRIYFLEEQVQQKCDNSSEDLYRMNIE (domain or fragment) [Strep-His-Halo-3C-Xenopus γTuNA I67D/L70D]

- binding [2]: no binding (tested: 50 μM)
Binder: SPTRARNMKDFENQDTEDKKENFNLKLRIYFLEERMQQEFHGPTEH (domain or fragment) [Strep-His-Halo-3C-human γTuNA I67D/L70D]

- binding [3]: no binding (tested: 50 μM)
Binder: SPTRARNMKDFENQATEAKKENFNLKLRIYFLEERMQQEFHGPTEH (domain or fragment) [Strep-His-Halo-3C-human γTuNA I67A/L70A]
